This data set in a line: Surface chemical composition measurement (XPS) of aluminum oxide powder after exposure to drug solution. The class given is physicochemical. As to conditions: percentage of aluminum oxide powder remaining chemically treated after exposure to drug solution.
Turning to `CC(C)CCCC(C)CCCC(C)CCCC(C)CCP(=O)(O)O` (stereo not drawn) [A2, 1-phosphono-3,7,11,15-tetramethylhexadecane], the “% AO treated-final” value worked out at 100%.

Consider `CCCCCCCCCCCCCCCCP(=O)(O)O` [A3, 1-phosphonohexadecane], for which the “% AO treated-final” value was 100%.

On to `O=C(O)CCCCCCCCCCC(F)(F)C(F)(F)C(F)(F)C(F)(F)F` [A4, n-C4F9—(CH2)10—COOH], for which the “% AO treated-final” value was 100%.

On to `CC(C)CCCC(C)CCCC(C)CCCC(C)CCC(=O)O` (stereo not drawn) [A5, Phytanyl carboxylic acid], for which the “% AO treated-final” value is 100%.

For the compound `O=C(O)C(F)(F)C(F)(F)C(F)(F)F` [FC-23, perfluorobutyric acid], the “% AO treated-final” value came to 100%.

Take `O=P(O)(O)CCCCCCCCCCCC(F)(F)C(F)(F)C(F)(F)C(F)(F)F` [A1, n-C4F9—(CH2)11—PO3H2]: the “% AO treated-final” value was determined as 100%.

These data come from patent US20090050143A1, “MEDICINAL FORMULATION CONTAINER WITH A TREATED METAL SURFACE” (priority 2006, published 2009).
